# Test results taken from patent publication US20090137580A1, “Fused Heterocyclic Derivatives and Use Thereof” (Takeda Pharmaceutical Company Limited, priority 2005, published 2009).
# Protein sequences, listed by entry. Tags and fused reporters are not part of them. Residues count along the entry.
# UniProt P35968, 786-1356 limits assumed: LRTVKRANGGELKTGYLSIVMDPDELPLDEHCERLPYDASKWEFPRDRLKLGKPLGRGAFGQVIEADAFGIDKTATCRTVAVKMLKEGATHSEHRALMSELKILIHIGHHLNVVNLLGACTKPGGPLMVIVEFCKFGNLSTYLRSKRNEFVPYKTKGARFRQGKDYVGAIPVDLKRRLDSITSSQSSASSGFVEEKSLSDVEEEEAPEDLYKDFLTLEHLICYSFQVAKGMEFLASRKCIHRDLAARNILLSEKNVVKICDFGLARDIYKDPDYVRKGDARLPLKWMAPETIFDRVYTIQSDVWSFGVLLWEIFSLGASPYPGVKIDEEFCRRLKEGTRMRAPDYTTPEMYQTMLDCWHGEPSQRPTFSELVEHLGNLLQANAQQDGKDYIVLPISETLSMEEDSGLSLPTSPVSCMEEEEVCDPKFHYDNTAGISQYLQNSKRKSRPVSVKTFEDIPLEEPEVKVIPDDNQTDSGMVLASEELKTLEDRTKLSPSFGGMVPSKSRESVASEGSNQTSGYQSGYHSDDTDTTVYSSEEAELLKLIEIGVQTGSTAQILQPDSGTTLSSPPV
# UniProt P16234, 550-1089 limits assumed: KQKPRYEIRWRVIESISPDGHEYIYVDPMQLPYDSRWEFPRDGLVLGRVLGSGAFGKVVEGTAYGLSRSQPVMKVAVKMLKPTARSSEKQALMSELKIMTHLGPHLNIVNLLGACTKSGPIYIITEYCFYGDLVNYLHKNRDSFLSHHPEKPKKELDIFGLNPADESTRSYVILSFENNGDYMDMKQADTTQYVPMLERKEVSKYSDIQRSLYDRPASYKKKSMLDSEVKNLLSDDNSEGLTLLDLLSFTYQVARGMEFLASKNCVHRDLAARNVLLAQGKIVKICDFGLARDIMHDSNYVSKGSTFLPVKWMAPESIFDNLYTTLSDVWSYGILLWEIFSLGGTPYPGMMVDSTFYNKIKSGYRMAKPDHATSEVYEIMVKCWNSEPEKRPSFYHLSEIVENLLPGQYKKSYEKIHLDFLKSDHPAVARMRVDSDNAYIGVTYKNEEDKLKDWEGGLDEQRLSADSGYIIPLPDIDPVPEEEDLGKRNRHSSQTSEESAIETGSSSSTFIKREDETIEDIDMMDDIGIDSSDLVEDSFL
# Some of these results come from one statement about several compounds together.
# Tests used:
# [1] = biological target: T1, VEGF Receptor 2 Kinase (VEGFR2) (Homo sapiens, UniProt P35968); test: Determination of VEGF receptor 2 kinase (VEGFR2) inhibitory activity (alpha screen); type: biochemical; conditions: at 1 μM; VEGFR2 intracellular domain protein, 25 μM ATP buffer
# T1 construct: made in house; host or cells: SF-21 insect cells, recombinant baculovirus BAC-VEGFR2 (pFASTBAC1)
# Protocol: For cloning of human VEGF receptor 2 (hereinafter to be abbreviated as VEGFR2) gene, PCR was performed using cDNA Libraries Human Placenta (Clontech) as a template. The primer used for PCR was prepared by, based on the information of the base sequence (Genbank Accession AF035121) of VEGFR2 gene, adding a base sequence encoding the flag peptide and a restriction enzyme recognition sequence to the base sequence (2671-4374 of Genbank Accession AF035121) encoding the VEGFR2 intracellular domain, so that a flag tag would be added to the N terminal of the protein. The primer base sequence is shown in the following.
# PCR reaction was carried out using a KOD-plus kit (TOYOBO). The obtained PCR product was electrophoresed on an agarose gel (1%), and a DNA fragment amplified by PCR was recovered from the gel and digested with restriction enzymes Sal I and Sph I. The DNA after the restriction enzyme treatment was electrophoresed on an agarose gel (1%), and the obtained DNA fragment was recovered and ligated to the plasmid pFASTBAC1 (Invitrogen) digested with restriction enzymes Sal I and Sph I to give an expression plasmid pFB-VEGFR2. The base sequence of the inserted fragment was confirmed to have matched with the base sequence (2671-4374 of Genbank Accession AF035121) of the VEGFR2 intracellular domain. […]
# [2] = biological target: T2, PDGFR Alpha Receptor Kinase (PDGFRalpha) (Homo sapiens, UniProt P16234); test: Determination of PDGFR alpha receptor kinase (PDGFRalpha) inhibitory activity (alpha screen); type: biochemical; conditions: PDGFRalpha intracellular domain protein, 25 μM ATP buffer; read-out: IC50 value (PDGFRalpha kinase inhibition)
# T2 construct: PDGFRalpha intracellular domain protein (UPSTATE); purchased UPSTATE
# Protocol: The test compound dissolved in dimethyl sulfoxide (DMSO) was diluted with a buffer (50 mM Tris-HCl, pH 7.5, 5 mM MgCl2, 5 mM MnCl2, 2 mM dithiothreitol, 0.01% Tween-20).
# Acceptor beads: PerkinElmer for alpha screen assay) was added to quench the reaction. The reaction solution was stood at 25° C. for 16 hr, and the count was measured using a plate reader·Fusion™ (manufactured by PerkinElmer). The kinase inhibitory rate (%) of the test compound was calculated by the following formula.
# Inhibitory rate(%)=(1−(count of test compound−blank)÷(control−blank))×100
# wherein the count of the solution reacted without addition of the compound is “control” and the count of the solution without addition of the compound and ATP is “blank”.
structure (smiles),measurement,setting,value
"O=C(Nc1cccc(C(F)(F)F)c1)Nc1ccc(Oc2ncnc3cc[nH]c23)cc1Cl [Example 39, N-[2-chloro-4-(5H-pyrrolo[3,2-d]pyrimidin-4-yloxy)phenyl]-N′-[3-(trifluoromethyl)phenyl]urea]",inhibitory rate (kinase inhibitory rate of VEGFR2),[1],not less than 90%
same,IC50,[2],≤ 500 nM
